According to doi:10.1101/2021.06.06.447232:
No constants are given. Whether binding was seen depends on the method and setting. Binding seen in cells or lysates may run through a third protein. These calls come from enrichment with a bait or labelling near it, and not all partners need be listed.

Sequences of proteins named here, by UniProt entry; tags and fusion partners are left off. A change or cut given only in a name is not applied to a line headed by its entry. Residues count along the entry.
UniProt P16870: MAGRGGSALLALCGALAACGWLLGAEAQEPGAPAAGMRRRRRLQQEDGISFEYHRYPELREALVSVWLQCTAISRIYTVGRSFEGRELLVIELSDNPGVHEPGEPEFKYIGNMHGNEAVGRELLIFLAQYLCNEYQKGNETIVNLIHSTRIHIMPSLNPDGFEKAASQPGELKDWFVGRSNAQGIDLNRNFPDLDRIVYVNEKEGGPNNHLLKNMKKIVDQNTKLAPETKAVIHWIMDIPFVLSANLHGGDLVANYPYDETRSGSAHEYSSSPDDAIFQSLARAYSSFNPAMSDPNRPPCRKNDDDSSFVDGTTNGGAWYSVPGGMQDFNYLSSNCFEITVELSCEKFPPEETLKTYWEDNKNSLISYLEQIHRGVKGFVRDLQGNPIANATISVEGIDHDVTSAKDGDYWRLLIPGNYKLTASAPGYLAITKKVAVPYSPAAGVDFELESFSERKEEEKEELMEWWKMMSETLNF
UniProt P11021, residues 19-654: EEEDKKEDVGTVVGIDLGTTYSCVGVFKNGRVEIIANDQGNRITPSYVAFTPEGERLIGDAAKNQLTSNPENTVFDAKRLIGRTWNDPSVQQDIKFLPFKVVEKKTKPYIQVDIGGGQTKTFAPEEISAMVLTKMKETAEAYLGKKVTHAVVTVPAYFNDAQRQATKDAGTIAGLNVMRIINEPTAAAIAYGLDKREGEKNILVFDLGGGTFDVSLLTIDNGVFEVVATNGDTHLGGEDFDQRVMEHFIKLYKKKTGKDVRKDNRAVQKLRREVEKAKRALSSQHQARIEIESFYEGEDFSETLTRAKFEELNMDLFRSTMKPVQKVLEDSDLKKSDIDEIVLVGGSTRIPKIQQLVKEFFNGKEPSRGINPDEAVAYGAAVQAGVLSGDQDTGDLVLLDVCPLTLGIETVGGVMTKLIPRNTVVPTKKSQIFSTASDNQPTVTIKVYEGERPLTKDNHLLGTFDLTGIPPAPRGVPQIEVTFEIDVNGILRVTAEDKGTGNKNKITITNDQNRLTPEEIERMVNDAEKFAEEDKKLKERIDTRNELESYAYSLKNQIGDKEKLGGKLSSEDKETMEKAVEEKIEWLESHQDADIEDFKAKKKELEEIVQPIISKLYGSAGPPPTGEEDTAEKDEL

Biological target: full length CPE-GFP (carboxypeptidase E tagged at the C-terminal with GFP) (UniProt P16870)
Experiment: affinity purification with mass spectrometry

GRP78/BIP (from UniProt P11021 19-654)
binding: binds
